This test concerns the target human aquaporin 0 (AQP0) fused to a split-YFP fragment (human) (UniProt P30301). The test can be described thus: split reporter; BiFC (split YFP) in living S. cerevisiae, read by fluorescence microscopy (Zeiss Axio Observer Z1, 100x); cells at OD600 = 0.5.

Chains of the proteins cited; added tags and fusions are not shown.
UniProt P30301: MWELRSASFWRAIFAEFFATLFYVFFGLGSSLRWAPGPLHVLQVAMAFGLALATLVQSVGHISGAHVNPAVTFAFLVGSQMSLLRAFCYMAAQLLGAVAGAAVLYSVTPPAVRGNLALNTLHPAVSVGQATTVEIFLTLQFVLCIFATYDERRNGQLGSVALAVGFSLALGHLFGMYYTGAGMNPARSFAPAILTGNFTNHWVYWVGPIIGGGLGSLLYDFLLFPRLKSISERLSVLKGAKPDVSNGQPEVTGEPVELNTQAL

No constants are given. Whether binding was seen depends on the method and setting. In cells and extracts the contact can be indirect. Some results given as binding are weak or reduced against the parent protein; the word gives no strength.

On to “human aquaporin 0 (AQP0) fused to a split-YFP fragment (from UniProt P30301 1-263)”, for which the binding entry is “binds”.
